Values of other authors as cited in patent US12527768B2, “Compositions comprising an anti-inflammatory drug and a dicer activator for use in the treatment of neuronal diseases” (NeuroSense Therapeutics Ltd., priority 2017, dated 2026).

Test system: SOD1 mutant zebrafish
Details: 1 μM in swimming water; cited from earlier work

Nc1nc2ccc(OC(F)(F)F)cc2s1 [Riluzole]
toxicity in SOD1 mutant zebrafish: no toxicity
